Results deposited as PubChem BioAssay AID1259308 (NCATS, 2017)
Purpose: 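Knock-downs that increase output of a recombinant reporter protein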 (primary screen). Cell system: human HEK293 embryonic kidney cells stably expressing firefly luciferase (HEK-CMV-Luc2-Hygro). Reagents: single siRNA against human genes, 0.8 pmol siRNA per well. Timing: 72 h. Measurement: 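Reporter luminescence and viable-cell signal on separate replicate plates, given as percent of non-targeting control and median/MAD z-scores, plus per-cell luciferase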. Direction: total luciferase, z-score: higher = more reporter protein produced. Hit rule: 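Active when the median/MAD z-score for overall luciferase is greater than 3; a gene was taken forward for validation with new siRNAs if at least two of its three siRNAs passed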. Calls: active = raised luciferase; inactive = no rise.
Here is an unselected part of about 59,000 reagents tested. In the full data, about 1,510 (2.6%) got an active call. 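Calls use total luciferase alone and ignore viability, so some active siRNAs may act by altering cell number.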 The numbers tell different reagents against one gene apart. Further read-outs or replicates are left out here.

Silencing of KLHL29 #1 gave: total luciferase, z-score 1.53; inactive.
KLHL29 #2 scored total luciferase, z-score -1.57; inactive.
Against KLHL29 #3, the entry reads total luciferase, z-score 0.115; inactive.
For POLR1G #1 the deposit lists total luciferase, z-score 0.134; inactive.
Against POLR1G #2 the deposit lists total luciferase, z-score 1.47; inactive.
With knock-down of POLR1G #3, the record shows total luciferase, z-score 2.05; inactive.
PTPRQ #1 scored total luciferase, z-score 0.156; inactive.
PTPRQ #2 showed total luciferase, z-score -0.53; inactive.
Depletion of PTPRQ #3 resulted in: total luciferase, z-score -2.02; inactive.
Against EIF2D #1, the values are total luciferase, z-score 0.589; inactive.
EIF2D #2 showed total luciferase, z-score 1.36; inactive.
Against EIF2D #3, the entry reads total luciferase, z-score 0.315; inactive.
Against PFKFB1 #1 the deposit lists total luciferase, z-score -0.161; inactive.
After knock-down of PFKFB1 #2 the results were total luciferase, z-score -1.31; inactive.
For PFKFB1 #3 the deposit lists total luciferase, z-score -2.05; inactive.
Silencing of PCNP #1 resulted in: total luciferase, z-score -0.0403; inactive.
After knock-down of PCNP #2, the screen gave total luciferase, z-score 0.801; inactive.
PCNP #3 showed total luciferase, z-score -0.0429; inactive.
XPOT #1 scored total luciferase, z-score 0.0953; inactive.
Knock-down of XPOT #2 came out at: total luciferase, z-score -1.5; inactive.
With knock-down of XPOT #3 the results were total luciferase, z-score -0.169; inactive.
Against DNAJB6 #1 the deposit lists total luciferase, z-score -0.373; inactive.
With knock-down of DNAJB6 #2, the record shows total luciferase, z-score -0.401; inactive.
DNAJB6 #3 gave total luciferase, z-score 0.0956; inactive.
For CSNK1D #1, the entry reads total luciferase, z-score 2.3; inactive.
Depletion of CSNK1D #2 resulted in: total luciferase, z-score -0.0157; inactive.
With knock-down of CSNK1D #3, the record shows total luciferase, z-score -1.52; inactive.
Depletion of LGALS9B #1 gave: total luciferase, z-score -1.78; inactive.
Silencing of LGALS9B #2 gave: total luciferase, z-score -2.03; inactive.
Against LGALS9B #3, the entry reads total luciferase, z-score 0.606; inactive.
Knock-down of CFHR2 #1 gave: total luciferase, z-score -0.288; inactive.
CFHR2 #2 gave total luciferase, z-score 0.397; inactive.
CFHR2 #3 scored total luciferase, z-score -0.668; inactive.

Copied from the list:
Value for EIF2D #2 in “Outcome”: inactive
PFKFB1 #2, Outcome: inactive
PFKFB1 #1, Outcome → inactive
